Measurements: article PMC3750179
No constants are given. Whether binding was seen depends on the method and setting. Binding seen in cells or lysates may run through a third protein. For some assays here: A result given as binding can be weak or reduced; the word gives no strength. For some assays here: Sequences can lack the tags named with a protein.

Chains of the proteins cited; added tags and fusions are not shown. Lines headed by an entry give the natural chain unless they say otherwise; changes in a name come on top.
UniProt Q9Z0U4: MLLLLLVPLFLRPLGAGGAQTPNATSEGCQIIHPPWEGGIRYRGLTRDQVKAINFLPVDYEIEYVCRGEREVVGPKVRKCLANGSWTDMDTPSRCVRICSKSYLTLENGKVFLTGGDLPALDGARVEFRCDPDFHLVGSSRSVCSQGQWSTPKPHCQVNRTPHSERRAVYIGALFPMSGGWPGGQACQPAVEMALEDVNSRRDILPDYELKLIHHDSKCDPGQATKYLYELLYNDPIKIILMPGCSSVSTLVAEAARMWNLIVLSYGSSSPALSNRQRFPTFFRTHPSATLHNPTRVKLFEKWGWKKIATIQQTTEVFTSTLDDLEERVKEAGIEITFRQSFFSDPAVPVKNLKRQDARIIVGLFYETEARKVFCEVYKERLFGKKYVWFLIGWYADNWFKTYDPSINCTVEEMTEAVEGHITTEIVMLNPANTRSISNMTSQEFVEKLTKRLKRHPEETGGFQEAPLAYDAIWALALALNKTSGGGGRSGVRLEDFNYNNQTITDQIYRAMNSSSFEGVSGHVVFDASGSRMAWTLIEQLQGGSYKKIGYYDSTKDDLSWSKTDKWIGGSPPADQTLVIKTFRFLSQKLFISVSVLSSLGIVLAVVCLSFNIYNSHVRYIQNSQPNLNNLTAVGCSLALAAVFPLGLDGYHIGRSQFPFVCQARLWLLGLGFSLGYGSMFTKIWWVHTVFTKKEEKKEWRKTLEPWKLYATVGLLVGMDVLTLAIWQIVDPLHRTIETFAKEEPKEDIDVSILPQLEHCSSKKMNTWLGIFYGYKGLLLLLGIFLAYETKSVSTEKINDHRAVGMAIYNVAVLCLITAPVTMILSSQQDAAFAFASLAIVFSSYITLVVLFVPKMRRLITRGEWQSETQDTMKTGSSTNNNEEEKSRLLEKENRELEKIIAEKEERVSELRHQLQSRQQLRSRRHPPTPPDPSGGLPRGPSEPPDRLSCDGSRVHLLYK
UniProt Q6WVG3: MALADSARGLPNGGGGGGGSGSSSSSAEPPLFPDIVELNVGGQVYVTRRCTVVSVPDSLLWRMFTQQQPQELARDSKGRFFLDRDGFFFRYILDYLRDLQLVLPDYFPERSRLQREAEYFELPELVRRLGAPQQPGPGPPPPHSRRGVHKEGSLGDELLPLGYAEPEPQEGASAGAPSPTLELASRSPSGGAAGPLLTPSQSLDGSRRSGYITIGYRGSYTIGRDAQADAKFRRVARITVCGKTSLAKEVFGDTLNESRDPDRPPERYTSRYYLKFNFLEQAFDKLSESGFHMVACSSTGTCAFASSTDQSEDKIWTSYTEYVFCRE

Columns and labels:
[1] = biological target: Myc-GABAB1 (UniProt Q9Z0U4); assay: pull-down; surface biotinylation of transfected COS-1 cells, 120 min at 37 °C to allow internalization, surface biotin removed with glutathione, biotinylated proteins purified with NeutrAvidin-Sepharose, Western blot; the text calls it co-immunoprecipitation
[2] = biological target: HA-GABAB1-YFP (UniProt Q9Z0U4); assay: FRET or BRET; BRET donor saturation curves in intact COS-1 cells: fixed Rluc fusion (donor) and fixed GABAB2, increasing GABAB1-YFP (acceptor); coelenterazine h 5 μM; PBS or 100 μM baclofen for 15 min; fit with a single binding site

Molecule: FLAG-KCTD12 (from UniProt Q6WVG3 1-327)
- binding [1]: binds

B1: Rluc-KCTD10 (protein, UniProt Q922M3 1-315)
chain: MEEMSGDSVVSSAVPAAATRTTSFKGASPSSKYVKLNVGGALYYTTMQTLTKQDTMLKAMFSGRMEVLTDSEGWILIDRCGKHFGTILNYLRDGGVPLPESRREIEELLAEAKYYLVQGLLEECQAALQNKDTYEPFCKVPVITSSKEEQRLIATSNKPAVKLLYNRSNNKYSYTSNSDDNMLKNIELFDKLSLRFNGRVLFIKDVIGDEICCWSFYGQGRKIAEVCCTSIVYATEKKQTKVEFPEARIYEETLNILLYEAQDGRGPDNALLEATGGAAGRSHHLDEDEERERERIERVRRIHIKRPDDRAHLHQ
- binding [2]: no binding
